{
  "sequences": {"note": "By UniProt entry, the sequences of proteins in these tests, tags left out.", "UniProt P11387": "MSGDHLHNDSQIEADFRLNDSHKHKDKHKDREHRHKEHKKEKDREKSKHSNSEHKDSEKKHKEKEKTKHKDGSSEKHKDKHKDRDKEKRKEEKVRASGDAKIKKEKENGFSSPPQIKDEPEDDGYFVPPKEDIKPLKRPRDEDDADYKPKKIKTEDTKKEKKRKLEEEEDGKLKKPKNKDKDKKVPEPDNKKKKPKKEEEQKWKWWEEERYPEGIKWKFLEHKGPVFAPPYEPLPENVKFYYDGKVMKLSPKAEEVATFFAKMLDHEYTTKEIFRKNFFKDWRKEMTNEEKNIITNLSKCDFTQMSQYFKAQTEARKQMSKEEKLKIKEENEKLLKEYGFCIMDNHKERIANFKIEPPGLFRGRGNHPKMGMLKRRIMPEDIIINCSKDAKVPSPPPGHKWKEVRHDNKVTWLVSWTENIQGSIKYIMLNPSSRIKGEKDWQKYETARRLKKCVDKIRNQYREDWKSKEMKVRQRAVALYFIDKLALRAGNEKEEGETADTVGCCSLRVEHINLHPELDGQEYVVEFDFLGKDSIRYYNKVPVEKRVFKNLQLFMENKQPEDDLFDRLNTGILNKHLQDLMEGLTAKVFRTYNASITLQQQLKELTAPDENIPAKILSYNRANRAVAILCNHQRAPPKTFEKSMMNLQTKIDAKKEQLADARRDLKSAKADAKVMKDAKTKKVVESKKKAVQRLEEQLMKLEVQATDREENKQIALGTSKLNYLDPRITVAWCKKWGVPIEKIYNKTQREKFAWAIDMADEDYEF"},
  "source": "paper PMC8447655",
  "target": "T1, Glutathione-S-transferases-theta1 (GSTT1) (human (endogenous in SOC cell lines HO8910 / SKOV3)) (UniProt P30711)",
  "T1 sequence": "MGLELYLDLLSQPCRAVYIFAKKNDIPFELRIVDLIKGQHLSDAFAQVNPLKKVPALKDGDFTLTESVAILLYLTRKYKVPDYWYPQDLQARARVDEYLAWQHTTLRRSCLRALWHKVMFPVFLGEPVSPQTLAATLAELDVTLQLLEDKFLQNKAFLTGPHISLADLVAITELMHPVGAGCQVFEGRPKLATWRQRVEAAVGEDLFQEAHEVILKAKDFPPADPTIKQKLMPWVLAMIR",
  "experiment": "co-IP; 1 mg of total protein immunoprecipitated with anti-GSTT1 or anti-Topo I (1:40) in lysis buffer for 12 h, protein A and G beads, SDS-PAGE; endogenous proteins",
  "note": "Results are given in words; binding and its absence hold for the method and conditions named. In cells and extracts the contact can be indirect. Some entries that bind do so weakly or less than the wild type. Where a sequence is shown, tags or fusion partners need not be part of it.",
  "data": [
    {"substance": "DNA topoisomerase 1 (Topo I) (from UniProt P11387 1-765)", "values": [
      {"measurement": "binding", "value": "binds"}
    ]}
  ]
}
